Taken from: PubChem BioAssay AID743121 (NCATS, 2013)
Aim: 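Genes whose silencing strengthens cell killing by camptothecin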 (primary screen). Cell system: MDA-MB-231 cells, a human breast cancer line. Reagents: single siRNA against human genes, 20 nM siRNA (0.8 pmol per well). Duration: 120 h (drug added 48 h after transfection, read 72 h later). Challenge: camptothecin 20 nM (about EC30) for 72 h; vehicle 0.1% DMSO in parallel plates. Measurement: 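Cell viability by ATP luminescence (CellTiter-Glo) as % of non-targeting siRNA wells, and the log2 ratio of viability without drug over viability with camptothecin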. Scale: log2 vehicle/camptothecin viability: higher = stronger sensitisation to camptothecin; viability with camptothecin: higher = more viable cells. Units: viability with camptothecin in % of control. Hit rule: 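Active genes have an RSA gene-level p-value below 0.001, computed from the ratios of their separate siRNAs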.
Shown is one part, drawn at random, of about 26,000 deposited reagents. 167 of them (0.63%) count as active. 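Calls are per gene from RSA p-values that are not deposited; an individual active-marked siRNA can sensitise only weakly.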 Further read-outs or replicates are left out here. No sequences are given here.

{"gene": "GPC3", "PubChem SID": "SID164366656", "log2 vehicle/camptothecin viability": -0.358, "viability with camptothecin": 89, "Outcome": "inactive"}
{"gene": "GPC3", "PubChem SID": "SID164366657", "log2 vehicle/camptothecin viability": -0.0241, "viability with camptothecin": 83, "Outcome": "inactive"}
{"gene": "GPC3", "PubChem SID": "SID164366658", "log2 vehicle/camptothecin viability": 0.418, "viability with camptothecin": 82.7, "Outcome": "inactive"}
{"gene": "GPC3", "PubChem SID": "SID164366661", "log2 vehicle/camptothecin viability": -0.316, "viability with camptothecin": 98.4, "Outcome": "inactive"}
{"gene": "LRRN1", "PubChem SID": "SID164495436", "log2 vehicle/camptothecin viability": -0.314, "viability with camptothecin": 87.6, "Outcome": "inactive"}
{"gene": "LRRN1", "PubChem SID": "SID164495441", "log2 vehicle/camptothecin viability": -0.328, "viability with camptothecin": 114, "Outcome": "inactive"}
{"gene": "LRRN1", "PubChem SID": "SID164495442", "log2 vehicle/camptothecin viability": -0.144, "viability with camptothecin": 103, "Outcome": "inactive"}
{"gene": "LRRN1", "PubChem SID": "SID164495443", "log2 vehicle/camptothecin viability": -0.0283, "viability with camptothecin": 69.1, "Outcome": "inactive"}
{"gene": "PAFAH2", "PubChem SID": "SID164379340", "log2 vehicle/camptothecin viability": -0.354, "viability with camptothecin": 48.5, "Outcome": "inactive"}
{"gene": "PAFAH2", "PubChem SID": "SID164379341", "log2 vehicle/camptothecin viability": -0.123, "viability with camptothecin": 115, "Outcome": "inactive"}
{"gene": "PAFAH2", "PubChem SID": "SID164379343", "log2 vehicle/camptothecin viability": 0.315, "viability with camptothecin": 4.64, "Outcome": "inactive"}
{"gene": "PAFAH2", "PubChem SID": "SID164379344", "log2 vehicle/camptothecin viability": -0.162, "viability with camptothecin": 87.5, "Outcome": "inactive"}
{"gene": "SLC9A2", "PubChem SID": "SID164388493", "log2 vehicle/camptothecin viability": -0.132, "viability with camptothecin": 103, "Outcome": "inactive"}
{"gene": "SLC9A2", "PubChem SID": "SID164388494", "log2 vehicle/camptothecin viability": -0.085, "viability with camptothecin": 95.5, "Outcome": "inactive"}
{"gene": "SLC9A2", "PubChem SID": "SID164388495", "log2 vehicle/camptothecin viability": -0.199, "viability with camptothecin": 101, "Outcome": "inactive"}
{"gene": "SLC9A2", "PubChem SID": "SID164388498", "log2 vehicle/camptothecin viability": -0.0229, "viability with camptothecin": 93.3, "Outcome": "inactive"}

3 entries already listed, arranged by “log2 vehicle/camptothecin viability”, high to low:
{"gene": "SLC9A2", "PubChem SID": "SID164388494", "log2 vehicle/camptothecin viability": -0.085, "viability with camptothecin": 95.5, "Outcome": "inactive"}
{"gene": "SLC9A2", "PubChem SID": "SID164388493", "log2 vehicle/camptothecin viability": -0.132, "viability with camptothecin": 103, "Outcome": "inactive"}
{"gene": "PAFAH2", "PubChem SID": "SID164379344", "log2 vehicle/camptothecin viability": -0.162, "viability with camptothecin": 87.5, "Outcome": "inactive"}

Additional results:
{"gene": "ABCB6", "PubChem SID": "SID164408375", "log2 vehicle/camptothecin viability": -0.17, "viability with camptothecin": 68, "Outcome": "inactive"}
{"gene": "ABCB6", "PubChem SID": "SID164408376", "log2 vehicle/camptothecin viability": -0.59, "viability with camptothecin": 85.6, "Outcome": "inactive"}
{"gene": "ABCB6", "PubChem SID": "SID164408377", "log2 vehicle/camptothecin viability": -0.131, "viability with camptothecin": 97.1, "Outcome": "inactive"}
{"gene": "ABCB6", "PubChem SID": "SID164408379", "log2 vehicle/camptothecin viability": -0.239, "viability with camptothecin": 101, "Outcome": "inactive"}
{"gene": "NID2", "PubChem SID": "SID164443575", "log2 vehicle/camptothecin viability": 0.251, "viability with camptothecin": 70.8, "Outcome": "inactive"}
{"gene": "NID2", "PubChem SID": "SID164443580", "log2 vehicle/camptothecin viability": 0.526, "viability with camptothecin": 33.4, "Outcome": "inactive"}
{"gene": "NID2", "PubChem SID": "SID164443581", "log2 vehicle/camptothecin viability": -0.0848, "viability with camptothecin": 64.3, "Outcome": "inactive"}
{"gene": "NID2", "PubChem SID": "SID164443582", "log2 vehicle/camptothecin viability": -0.29, "viability with camptothecin": 93.5, "Outcome": "inactive"}
{"gene": "ZMYND19", "PubChem SID": "SID164562931", "log2 vehicle/camptothecin viability": 1.21, "viability with camptothecin": 39.7, "Outcome": "inactive"}
{"gene": "ZMYND19", "PubChem SID": "SID164562937", "log2 vehicle/camptothecin viability": -0.0967, "viability with camptothecin": 87.7, "Outcome": "inactive"}
{"gene": "ZMYND19", "PubChem SID": "SID164562938", "log2 vehicle/camptothecin viability": -0.115, "viability with camptothecin": 76.4, "Outcome": "inactive"}
{"gene": "PPP3CB", "PubChem SID": "SID164382278", "log2 vehicle/camptothecin viability": -0.203, "viability with camptothecin": 103, "Outcome": "inactive"}
{"gene": "PPP3CB", "PubChem SID": "SID164382282", "log2 vehicle/camptothecin viability": 0.219, "viability with camptothecin": 61.6, "Outcome": "inactive"}
{"gene": "PPP3CB", "PubChem SID": "SID164382285", "log2 vehicle/camptothecin viability": 0.0501, "viability with camptothecin": 92.6, "Outcome": "inactive"}
{"gene": "PPP3CB", "PubChem SID": "SID164382287", "log2 vehicle/camptothecin viability": -0.443, "viability with camptothecin": 117, "Outcome": "inactive"}
{"gene": "SENP2", "PubChem SID": "SID164498628", "log2 vehicle/camptothecin viability": -0.505, "viability with camptothecin": 94.5, "Outcome": "inactive"}
{"gene": "SENP2", "PubChem SID": "SID164498629", "log2 vehicle/camptothecin viability": -0.187, "viability with camptothecin": 90, "Outcome": "inactive"}
{"gene": "SENP2", "PubChem SID": "SID164498631", "log2 vehicle/camptothecin viability": -0.396, "viability with camptothecin": 63.4, "Outcome": "inactive"}
{"gene": "SENP2", "PubChem SID": "SID164498632", "log2 vehicle/camptothecin viability": -0.119, "viability with camptothecin": 71.2, "Outcome": "inactive"}
